We go through 24 targets from the supplement of paper PMC10849652.

By UniProt entry, the sequences of proteins in these tests, tags left out. Where a name states a change or a piece, a line headed by the entry shows the natural chain unless it says otherwise.
UniProt Q15025: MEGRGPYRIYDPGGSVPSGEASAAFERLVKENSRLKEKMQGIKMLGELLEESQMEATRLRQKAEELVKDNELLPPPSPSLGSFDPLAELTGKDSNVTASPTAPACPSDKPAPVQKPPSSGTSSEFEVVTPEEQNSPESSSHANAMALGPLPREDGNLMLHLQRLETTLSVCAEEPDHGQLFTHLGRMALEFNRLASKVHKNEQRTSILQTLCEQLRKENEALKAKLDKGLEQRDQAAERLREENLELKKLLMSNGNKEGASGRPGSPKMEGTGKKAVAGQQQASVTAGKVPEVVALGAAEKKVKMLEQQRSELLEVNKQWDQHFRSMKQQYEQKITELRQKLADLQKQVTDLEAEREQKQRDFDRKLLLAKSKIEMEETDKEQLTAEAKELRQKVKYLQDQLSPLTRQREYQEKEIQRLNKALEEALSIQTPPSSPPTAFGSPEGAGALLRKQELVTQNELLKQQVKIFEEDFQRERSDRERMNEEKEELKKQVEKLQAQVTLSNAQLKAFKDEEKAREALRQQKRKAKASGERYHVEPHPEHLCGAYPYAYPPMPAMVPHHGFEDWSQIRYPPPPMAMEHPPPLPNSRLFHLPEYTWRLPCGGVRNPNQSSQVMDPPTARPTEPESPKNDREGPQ
UniProt Q9C037: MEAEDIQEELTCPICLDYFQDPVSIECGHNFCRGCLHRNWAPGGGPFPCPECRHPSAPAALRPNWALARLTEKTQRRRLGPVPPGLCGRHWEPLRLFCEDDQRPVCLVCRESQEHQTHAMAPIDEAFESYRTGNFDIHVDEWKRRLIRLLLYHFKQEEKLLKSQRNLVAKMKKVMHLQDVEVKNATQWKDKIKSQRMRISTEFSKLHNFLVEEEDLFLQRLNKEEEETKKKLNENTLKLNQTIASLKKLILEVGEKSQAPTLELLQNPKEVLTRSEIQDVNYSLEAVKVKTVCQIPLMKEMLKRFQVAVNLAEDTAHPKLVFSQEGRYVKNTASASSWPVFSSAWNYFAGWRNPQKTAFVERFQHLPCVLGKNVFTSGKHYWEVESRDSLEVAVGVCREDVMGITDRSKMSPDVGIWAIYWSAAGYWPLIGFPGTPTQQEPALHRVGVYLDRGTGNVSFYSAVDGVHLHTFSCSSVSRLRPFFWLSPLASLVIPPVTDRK
UniProt O75865, whole entry, looked up: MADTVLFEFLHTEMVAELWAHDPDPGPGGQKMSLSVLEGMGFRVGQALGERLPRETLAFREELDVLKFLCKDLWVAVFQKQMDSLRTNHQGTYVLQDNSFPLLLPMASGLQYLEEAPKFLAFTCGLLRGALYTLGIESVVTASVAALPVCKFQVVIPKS
UniProt Q9H4I3: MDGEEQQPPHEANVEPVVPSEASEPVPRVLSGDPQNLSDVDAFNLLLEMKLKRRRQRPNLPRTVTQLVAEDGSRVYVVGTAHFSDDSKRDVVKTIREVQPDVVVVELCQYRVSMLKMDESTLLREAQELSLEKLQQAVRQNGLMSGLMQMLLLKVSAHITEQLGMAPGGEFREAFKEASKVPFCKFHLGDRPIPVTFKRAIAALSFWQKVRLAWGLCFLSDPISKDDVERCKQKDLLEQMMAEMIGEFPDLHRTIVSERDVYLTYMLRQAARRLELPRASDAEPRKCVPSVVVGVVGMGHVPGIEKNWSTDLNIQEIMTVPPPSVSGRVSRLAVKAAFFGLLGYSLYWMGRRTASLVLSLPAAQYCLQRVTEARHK
UniProt Q6Q0C0: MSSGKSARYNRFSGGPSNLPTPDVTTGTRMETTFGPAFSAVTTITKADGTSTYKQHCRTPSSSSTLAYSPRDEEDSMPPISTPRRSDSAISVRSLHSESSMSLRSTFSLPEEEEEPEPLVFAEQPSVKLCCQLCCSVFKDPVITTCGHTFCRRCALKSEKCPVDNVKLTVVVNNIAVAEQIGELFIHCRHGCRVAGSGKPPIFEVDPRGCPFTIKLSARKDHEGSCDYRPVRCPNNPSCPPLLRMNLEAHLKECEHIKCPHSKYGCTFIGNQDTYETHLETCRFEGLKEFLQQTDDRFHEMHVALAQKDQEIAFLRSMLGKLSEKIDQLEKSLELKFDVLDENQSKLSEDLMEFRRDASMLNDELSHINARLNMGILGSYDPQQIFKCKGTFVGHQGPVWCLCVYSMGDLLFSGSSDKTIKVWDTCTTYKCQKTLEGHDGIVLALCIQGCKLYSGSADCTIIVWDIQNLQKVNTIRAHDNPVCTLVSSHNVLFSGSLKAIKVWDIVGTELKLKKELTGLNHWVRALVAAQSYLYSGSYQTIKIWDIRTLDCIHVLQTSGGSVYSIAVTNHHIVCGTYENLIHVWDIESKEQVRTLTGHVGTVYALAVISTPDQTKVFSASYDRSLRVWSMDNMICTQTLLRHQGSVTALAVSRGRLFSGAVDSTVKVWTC
UniProt Q9H496: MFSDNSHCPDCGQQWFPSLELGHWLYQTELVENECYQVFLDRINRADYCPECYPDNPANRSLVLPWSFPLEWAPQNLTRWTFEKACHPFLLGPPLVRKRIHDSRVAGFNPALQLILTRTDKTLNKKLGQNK
UniProt Q9UPN9: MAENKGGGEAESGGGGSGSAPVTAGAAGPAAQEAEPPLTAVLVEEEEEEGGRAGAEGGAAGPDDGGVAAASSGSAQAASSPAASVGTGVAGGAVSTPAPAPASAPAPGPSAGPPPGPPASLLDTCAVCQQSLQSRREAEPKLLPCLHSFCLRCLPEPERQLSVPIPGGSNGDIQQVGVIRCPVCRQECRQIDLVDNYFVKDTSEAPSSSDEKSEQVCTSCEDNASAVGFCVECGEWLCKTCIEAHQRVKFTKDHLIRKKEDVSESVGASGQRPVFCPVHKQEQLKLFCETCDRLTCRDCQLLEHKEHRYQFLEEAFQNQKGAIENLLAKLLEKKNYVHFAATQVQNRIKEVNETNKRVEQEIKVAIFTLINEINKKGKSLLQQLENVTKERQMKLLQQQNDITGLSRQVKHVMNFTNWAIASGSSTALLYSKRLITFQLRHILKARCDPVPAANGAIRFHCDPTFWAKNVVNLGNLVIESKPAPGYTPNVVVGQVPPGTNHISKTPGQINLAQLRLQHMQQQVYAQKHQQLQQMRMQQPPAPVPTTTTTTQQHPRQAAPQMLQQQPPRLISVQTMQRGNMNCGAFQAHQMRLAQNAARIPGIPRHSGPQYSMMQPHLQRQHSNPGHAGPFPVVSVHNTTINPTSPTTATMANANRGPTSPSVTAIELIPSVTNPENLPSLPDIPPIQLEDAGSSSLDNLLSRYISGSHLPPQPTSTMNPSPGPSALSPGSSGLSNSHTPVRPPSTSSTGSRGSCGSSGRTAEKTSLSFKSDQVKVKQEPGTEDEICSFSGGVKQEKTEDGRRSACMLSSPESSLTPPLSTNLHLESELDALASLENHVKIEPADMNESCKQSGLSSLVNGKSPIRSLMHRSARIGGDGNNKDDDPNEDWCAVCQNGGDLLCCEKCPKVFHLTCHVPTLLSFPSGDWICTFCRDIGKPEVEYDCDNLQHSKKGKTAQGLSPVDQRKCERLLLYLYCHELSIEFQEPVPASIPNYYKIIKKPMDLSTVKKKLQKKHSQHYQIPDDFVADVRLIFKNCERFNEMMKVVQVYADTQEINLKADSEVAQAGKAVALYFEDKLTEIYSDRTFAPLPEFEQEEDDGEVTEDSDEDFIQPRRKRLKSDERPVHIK
UniProt Q14669: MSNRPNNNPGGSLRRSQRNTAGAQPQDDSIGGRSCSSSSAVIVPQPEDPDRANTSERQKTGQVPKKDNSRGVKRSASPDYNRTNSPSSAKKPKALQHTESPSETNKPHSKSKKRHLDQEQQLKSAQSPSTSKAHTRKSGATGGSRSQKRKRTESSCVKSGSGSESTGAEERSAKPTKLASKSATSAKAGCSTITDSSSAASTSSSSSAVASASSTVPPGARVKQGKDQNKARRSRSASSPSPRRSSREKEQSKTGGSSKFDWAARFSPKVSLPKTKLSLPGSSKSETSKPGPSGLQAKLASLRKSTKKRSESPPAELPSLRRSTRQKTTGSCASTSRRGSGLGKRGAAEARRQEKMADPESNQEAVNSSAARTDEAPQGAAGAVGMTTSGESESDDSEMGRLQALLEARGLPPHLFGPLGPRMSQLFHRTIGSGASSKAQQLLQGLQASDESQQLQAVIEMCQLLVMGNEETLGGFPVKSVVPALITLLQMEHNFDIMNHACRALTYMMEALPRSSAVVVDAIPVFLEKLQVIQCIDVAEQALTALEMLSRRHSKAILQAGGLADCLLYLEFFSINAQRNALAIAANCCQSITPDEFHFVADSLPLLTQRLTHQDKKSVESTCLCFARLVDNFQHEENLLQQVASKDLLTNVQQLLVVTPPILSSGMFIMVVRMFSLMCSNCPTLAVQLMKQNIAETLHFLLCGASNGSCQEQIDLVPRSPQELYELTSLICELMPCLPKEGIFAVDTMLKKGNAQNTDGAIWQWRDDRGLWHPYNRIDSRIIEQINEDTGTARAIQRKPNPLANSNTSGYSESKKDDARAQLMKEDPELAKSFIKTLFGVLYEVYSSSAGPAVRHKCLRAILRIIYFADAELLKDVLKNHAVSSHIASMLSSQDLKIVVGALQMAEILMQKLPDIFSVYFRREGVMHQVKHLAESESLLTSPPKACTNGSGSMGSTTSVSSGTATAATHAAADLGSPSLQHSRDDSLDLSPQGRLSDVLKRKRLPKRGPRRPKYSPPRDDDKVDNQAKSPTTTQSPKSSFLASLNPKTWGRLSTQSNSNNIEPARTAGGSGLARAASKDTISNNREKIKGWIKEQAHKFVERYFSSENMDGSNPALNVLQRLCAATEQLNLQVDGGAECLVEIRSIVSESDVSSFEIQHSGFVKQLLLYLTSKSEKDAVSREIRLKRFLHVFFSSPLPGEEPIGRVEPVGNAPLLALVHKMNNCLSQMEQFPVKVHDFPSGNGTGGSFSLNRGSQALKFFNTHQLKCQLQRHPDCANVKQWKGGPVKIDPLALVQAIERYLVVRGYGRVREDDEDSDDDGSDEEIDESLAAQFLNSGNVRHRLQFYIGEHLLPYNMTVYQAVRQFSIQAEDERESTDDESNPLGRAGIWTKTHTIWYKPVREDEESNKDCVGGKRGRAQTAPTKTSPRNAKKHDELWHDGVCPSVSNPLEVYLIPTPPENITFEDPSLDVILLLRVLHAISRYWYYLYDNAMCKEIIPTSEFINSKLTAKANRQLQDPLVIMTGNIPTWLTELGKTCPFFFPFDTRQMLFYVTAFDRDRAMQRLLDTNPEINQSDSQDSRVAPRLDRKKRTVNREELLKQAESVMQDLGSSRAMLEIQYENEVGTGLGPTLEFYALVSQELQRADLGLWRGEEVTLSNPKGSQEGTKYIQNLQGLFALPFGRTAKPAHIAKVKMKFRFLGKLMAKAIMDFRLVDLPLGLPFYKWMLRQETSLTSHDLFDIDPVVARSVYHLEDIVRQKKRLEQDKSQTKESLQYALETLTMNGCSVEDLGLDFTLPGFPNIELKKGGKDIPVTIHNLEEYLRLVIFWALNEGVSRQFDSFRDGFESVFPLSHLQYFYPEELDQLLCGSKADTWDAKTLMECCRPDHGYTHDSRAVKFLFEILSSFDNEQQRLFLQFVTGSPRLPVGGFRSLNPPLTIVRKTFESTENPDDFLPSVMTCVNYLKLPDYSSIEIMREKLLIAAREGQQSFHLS
UniProt Q86W33: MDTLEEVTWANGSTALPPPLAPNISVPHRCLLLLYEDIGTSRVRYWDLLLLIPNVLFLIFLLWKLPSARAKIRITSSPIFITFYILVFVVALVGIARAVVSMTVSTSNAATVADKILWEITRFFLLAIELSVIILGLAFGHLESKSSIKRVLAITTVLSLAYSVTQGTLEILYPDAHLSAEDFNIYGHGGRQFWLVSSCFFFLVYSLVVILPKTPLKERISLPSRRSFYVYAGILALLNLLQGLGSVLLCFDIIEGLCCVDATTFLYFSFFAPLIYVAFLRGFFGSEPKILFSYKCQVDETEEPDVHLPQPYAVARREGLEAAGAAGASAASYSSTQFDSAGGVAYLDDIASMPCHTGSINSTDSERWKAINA
UniProt O60784, whole entry, looked up: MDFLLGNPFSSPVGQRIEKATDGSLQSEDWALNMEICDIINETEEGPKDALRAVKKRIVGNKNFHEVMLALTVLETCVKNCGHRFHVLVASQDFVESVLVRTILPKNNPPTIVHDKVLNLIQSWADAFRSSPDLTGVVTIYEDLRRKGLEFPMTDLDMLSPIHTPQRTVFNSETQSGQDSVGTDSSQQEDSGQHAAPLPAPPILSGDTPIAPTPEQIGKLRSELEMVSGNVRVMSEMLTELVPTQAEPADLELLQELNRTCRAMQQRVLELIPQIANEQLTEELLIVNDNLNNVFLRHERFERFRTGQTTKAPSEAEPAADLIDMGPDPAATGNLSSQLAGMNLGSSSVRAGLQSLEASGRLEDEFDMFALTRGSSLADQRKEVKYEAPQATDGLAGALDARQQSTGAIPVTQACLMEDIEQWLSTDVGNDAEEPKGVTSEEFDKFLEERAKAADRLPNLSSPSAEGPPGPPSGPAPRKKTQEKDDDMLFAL

This is one part of the list.

Compound in one test: COc1cc2nc(-c3cc(F)ccc3O)nc(N[C@@H]3CNC[C@H]3C(C)(C)O)c2cc1OC
The test can be described thus: log2 fold change, soluble protein after heating vs DMSO (PISA); higher = thermal stabilisation; K562 cells, 10 uM, 30 min; active = over 0.2 and 3.5 SD of the protein, either way, in both replicates (recomputed). An outline of the steps:
(§1)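 Soluble protein was quantified by TMTpro 16plex LC-MS/MS after channel sums were equalised. It was obtained as the supernatant after 21,000xg for 90 min from pooled aliquots of K562 cells (2×10^6 cells/mL, 10 μM compound, 30 min) heated for 3 min across 48°C-58°C and extracted in PBS with 0.5% NP-40 at 4°C. Thermal stability values are relative to control samples and come from duplicates. They are given as log2 fold changes.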
Turning to TSC2 (UniProt P49815), the log2 fold change was inactive: -0.039. Still for that read-out and setting: next, TPRG1L (UniProt Q5T0D9): inactive: -0.326. On the same count and under the same terms, next, TNIP1 (UniProt Q15025): inactive: 0.264.

Take TRIM4 (UniProt Q9C037): the log2 fold change is inactive: 0.129.

Regarding TRAPPC6A isoform 2 (UniProt O75865), the log2 fold change was inactive: 0.045. Still for that read-out and setting: under TRABD (UniProt Q9H4I3) stands inactive: 0.198; under TRAM2 (UniProt Q15035), inactive: -0.022; under TNKS (UniProt O95271), inactive: 0.225. On the same count and under the same terms, next, TRAF7 (UniProt Q6Q0C0): inactive: -0.089.

Compound in the next test: COc1cc2ncnc(Nc3ccc(F)c(Cl)c3)c2cc1OCCCN1CCOCC1 [gefitinib]
The description is as above. An outline of the steps:
as §1
On to TRA2A (UniProt Q13595), for which the log2 fold change is inactive: 0.094. The same measure, in the same setting: under TPRG1L (UniProt Q5T0D9) stands inactive: -0.197. Regarding TPD52L2 isoform 3 (UniProt O43399), the log2 fold change is inactive: -0.153.

As for TOR1AIP2 (UniProt Q9H496), the log2 fold change was inactive: 0.089. Consider TRIO (UniProt O75962), for which the log2 fold change is inactive: 0.042.

For TRIM4 (UniProt Q9C037), the log2 fold change was inactive: -0.155. Same read-out and setting: under TRIM14 (UniProt Q14142) stands inactive: 0.193; under TRAPPC6A isoform 2 (UniProt O75865), inactive: 0.108. Same read-out and setting: under TRADD (UniProt Q15628) stands inactive: 0.028. Same read-out and setting: under TRABD (UniProt Q9H4I3) stands inactive: 0.149; under TRMT5 (UniProt Q32P41), inactive: 0.191. Consider TRIM33 isoform 2 (UniProt Q9UPN9), for which the log2 fold change was inactive: -0.143. Still for that read-out and setting: under TRIP12 isoform 3 (UniProt Q14669) stands inactive: 0.018. On the same count and under the same terms, next, TPRA1 (UniProt Q86W33): inactive: -0.227.

Compound in a further test: COc1cccc2cc(-c3nc([C@H]4CC[C@H](C(=O)O)CC4)n4ncnc(N)c34)[nH]c12
The description is as above. The essentials: as §1
For TSC2 (UniProt P49815), the log2 fold change was inactive: 0.139. On the same count and under the same terms, next, TRIM29 (UniProt Q14134): inactive: -0.025; TPRG1L (UniProt Q5T0D9): inactive: -0.162; TNIP1 (UniProt Q15025): inactive: 0.056. On to TPD52L2 isoform 3 (UniProt O43399), for which the log2 fold change was inactive: -0.202. Turning to TOR1AIP2 (UniProt Q9H496), the log2 fold change was inactive: -0.029. Still for that read-out and setting: next, TRPT1 isoform 4 (UniProt Q86TN4): inactive: -0.061. As for TRIO (UniProt O75962), the log2 fold change is inactive: 0.001. The same measure, in the same setting: next, TRIM4 (UniProt Q9C037): inactive: -0.137. Turning to TRAPPC6A isoform 2 (UniProt O75865), the log2 fold change was inactive: 0.007. The same measure, in the same setting: next, TRADD (UniProt Q15628): inactive: 0.074; TRABD (UniProt Q9H4I3): inactive: -0.006; TNRC6A (UniProt Q8NDV7): inactive: -0.081. Consider TRIM33 isoform 2 (UniProt Q9UPN9), for which the log2 fold change was inactive: 0.075. The same measure, in the same setting: under TRAF7 (UniProt Q6Q0C0) stands inactive: -0.13; under TNXB isoform 4 (UniProt P22105), inactive: 0.129.

As to TRIP12 isoform 3 (UniProt Q14669), the log2 fold change was inactive: 0.163. Consider TOM1 (UniProt O60784), for which the log2 fold change is inactive: 0.094. TPRA1 (UniProt Q86W33): the log2 fold change is inactive: 0.205.
